Reference: publication PMC8410014
These are yes or no findings as the source states them, for the method shown. In cells and extracts the contact can be indirect. Some binding calls cover weakened binding; strength is not graded here. Sequences can lack the tags named with a protein.

Tests used:
FLAG-tagged REV-ERBα [1] = biological target: T1, FLAG-tagged REV-ERBα (UniProt Q3UV55); assay: co-IP; HEK 293 cells transfected with indicated plasmids for 24 hours before treatment (GW4064, with or without ethanol); Pierce IP lysis buffer; anti-flag M2 magnetic beads; detected with mouse anti-FLAG and rabbit anti-GFP
T1 sequence: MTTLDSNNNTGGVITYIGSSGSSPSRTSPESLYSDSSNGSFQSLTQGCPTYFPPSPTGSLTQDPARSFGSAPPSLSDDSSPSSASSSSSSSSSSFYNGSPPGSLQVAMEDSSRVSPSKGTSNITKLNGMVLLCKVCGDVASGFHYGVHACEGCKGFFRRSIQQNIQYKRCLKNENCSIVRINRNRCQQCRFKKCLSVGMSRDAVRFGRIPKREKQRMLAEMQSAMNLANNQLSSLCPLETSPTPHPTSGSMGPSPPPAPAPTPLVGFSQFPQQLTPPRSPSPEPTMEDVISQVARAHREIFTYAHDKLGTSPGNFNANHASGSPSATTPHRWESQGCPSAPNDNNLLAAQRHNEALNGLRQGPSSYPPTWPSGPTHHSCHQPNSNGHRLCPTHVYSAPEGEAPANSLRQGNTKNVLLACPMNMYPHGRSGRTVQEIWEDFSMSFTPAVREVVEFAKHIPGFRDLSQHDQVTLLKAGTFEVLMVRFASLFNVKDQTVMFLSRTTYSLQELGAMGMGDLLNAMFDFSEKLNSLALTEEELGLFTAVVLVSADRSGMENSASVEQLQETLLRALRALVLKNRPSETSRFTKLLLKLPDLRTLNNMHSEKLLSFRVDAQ

FLAG-tagged REV-ERBα [2] = biological target: T1, FLAG-tagged REV-ERBα; assay: proximity ligation; Duolink in situ PLA (Red Starter Kit mouse/rabbit); FLAG-REV-ERBα and GFP-SHP coexpressed in HEK293T cells for 24 hours; cells fixed with 4% paraformaldehyde; mouse anti-FLAG and rabbit anti-GFP; confocal imaging

binding (FLAG-tagged REV-ERBα [1]): binds
binding (FLAG-tagged REV-ERBα [2]): binds
B1: GFP-tagged SHP (small heterodimer partner, NR0B2) (protein, UniProt Q62227 1-260)
chain: MSSGQSGVCPCQGSAGRPTILYALLSPSPRTRPVAPASHSHCLCQQQRPVRLCAPHRTCREALDVLAKTVAFLRNLPSFCHLPHEDQRRLLECCWGPLFLLGLAQDAVTFEVAEAPVPSILKKILLEEASSGTQGAQPSDRPQPSLAAVQWLQRCLESFWSLELGPKEYAYLKGTILFNPDVPGLRASCHIAHLQQEAHWALCEVLEPWYPASQGRLARILLMASTLKNIPGTLLVDLFFRPIMGDVDITELLEDMLLLR
